Results are given in words; binding and its absence hold for the method and conditions named. Binding seen in cells or lysates may run through a third protein. Some entries that bind do so weakly or less than the wild type.
Columns and labels:
Assay in all cases: co-IP; GFP-Trap MA magnetic beads on lysates of transfected NSC-34 cells (20 mM Tris-HCl, 150 mM NaCl, 2 mM EDTA, 1% NP40, pH 7.4), 500 ug lysate, overnight at 4 °C; immunoblotting for 53BP1
TDP-43 A315T-EGFP = TDP-43 A315T-EGFP (UniProt Q13148)
TDP-43 Q331K-EGFP = TDP-43 Q331K-EGFP (UniProt Q13148)
TDP-43 wildtype-EGFP = TDP-43 wildtype-EGFP (UniProt Q13148)

Protein sequences, listed by entry. Tags and fused reporters are not part of them.
UniProt P70399: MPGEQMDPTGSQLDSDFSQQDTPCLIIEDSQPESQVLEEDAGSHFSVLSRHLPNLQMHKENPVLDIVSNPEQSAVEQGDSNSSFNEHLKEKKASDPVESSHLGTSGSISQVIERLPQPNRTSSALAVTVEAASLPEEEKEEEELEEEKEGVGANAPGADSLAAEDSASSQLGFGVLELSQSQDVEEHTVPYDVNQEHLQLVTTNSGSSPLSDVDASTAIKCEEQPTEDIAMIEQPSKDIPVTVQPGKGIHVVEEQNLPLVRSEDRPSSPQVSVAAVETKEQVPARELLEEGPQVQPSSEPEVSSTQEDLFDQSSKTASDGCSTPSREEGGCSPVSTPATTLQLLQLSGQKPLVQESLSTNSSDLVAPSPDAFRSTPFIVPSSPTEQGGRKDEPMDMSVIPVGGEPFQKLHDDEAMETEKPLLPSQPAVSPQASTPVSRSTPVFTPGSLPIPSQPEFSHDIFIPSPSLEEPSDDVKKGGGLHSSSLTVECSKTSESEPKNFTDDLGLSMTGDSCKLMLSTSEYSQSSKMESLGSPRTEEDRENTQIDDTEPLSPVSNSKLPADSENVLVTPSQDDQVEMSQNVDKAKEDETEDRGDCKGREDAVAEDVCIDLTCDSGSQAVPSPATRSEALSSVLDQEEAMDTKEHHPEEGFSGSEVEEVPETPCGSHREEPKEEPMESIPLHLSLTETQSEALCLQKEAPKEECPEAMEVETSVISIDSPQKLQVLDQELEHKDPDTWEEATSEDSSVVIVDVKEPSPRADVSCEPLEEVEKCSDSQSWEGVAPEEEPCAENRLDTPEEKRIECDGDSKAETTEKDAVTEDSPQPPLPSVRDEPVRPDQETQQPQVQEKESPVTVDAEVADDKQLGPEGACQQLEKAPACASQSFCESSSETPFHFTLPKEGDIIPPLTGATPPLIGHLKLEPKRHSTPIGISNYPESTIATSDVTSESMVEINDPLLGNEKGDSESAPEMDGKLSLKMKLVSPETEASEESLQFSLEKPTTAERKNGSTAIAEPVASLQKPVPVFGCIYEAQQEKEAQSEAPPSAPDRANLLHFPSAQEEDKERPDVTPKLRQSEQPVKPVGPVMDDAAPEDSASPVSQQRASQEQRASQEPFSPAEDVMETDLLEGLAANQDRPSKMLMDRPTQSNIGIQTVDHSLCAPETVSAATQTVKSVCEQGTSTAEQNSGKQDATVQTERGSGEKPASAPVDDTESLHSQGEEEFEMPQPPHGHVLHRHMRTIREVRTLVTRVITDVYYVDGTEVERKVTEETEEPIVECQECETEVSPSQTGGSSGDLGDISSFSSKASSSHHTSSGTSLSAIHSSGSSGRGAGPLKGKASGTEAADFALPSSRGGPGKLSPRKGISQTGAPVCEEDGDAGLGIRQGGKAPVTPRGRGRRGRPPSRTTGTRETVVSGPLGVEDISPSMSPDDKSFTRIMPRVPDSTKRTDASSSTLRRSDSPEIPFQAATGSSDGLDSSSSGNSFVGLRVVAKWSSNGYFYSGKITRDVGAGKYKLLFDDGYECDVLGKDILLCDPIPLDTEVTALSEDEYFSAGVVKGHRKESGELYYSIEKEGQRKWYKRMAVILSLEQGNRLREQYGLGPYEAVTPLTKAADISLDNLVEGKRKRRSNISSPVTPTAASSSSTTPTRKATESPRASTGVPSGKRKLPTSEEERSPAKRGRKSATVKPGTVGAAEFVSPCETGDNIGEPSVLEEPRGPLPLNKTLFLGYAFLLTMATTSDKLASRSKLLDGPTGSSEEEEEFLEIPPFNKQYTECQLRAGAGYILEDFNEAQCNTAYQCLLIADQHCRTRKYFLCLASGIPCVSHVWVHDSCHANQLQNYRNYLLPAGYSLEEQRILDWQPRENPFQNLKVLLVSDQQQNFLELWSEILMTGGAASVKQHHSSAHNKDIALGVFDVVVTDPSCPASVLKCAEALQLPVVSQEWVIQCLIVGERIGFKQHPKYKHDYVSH

Measured: binding

p53-binding protein 1 (from UniProt P70399 1-1969)
binds: all assays above

Reference: publication PMC7488163
